Results are given in words; binding and its absence hold for the method and conditions named. Where a sequence is shown, tags or fusion partners need not be part of it.

This experiment concerns the target T1, GST-Sbp1 (S. cerevisiae) (UniProt P10080).
T1 sequence: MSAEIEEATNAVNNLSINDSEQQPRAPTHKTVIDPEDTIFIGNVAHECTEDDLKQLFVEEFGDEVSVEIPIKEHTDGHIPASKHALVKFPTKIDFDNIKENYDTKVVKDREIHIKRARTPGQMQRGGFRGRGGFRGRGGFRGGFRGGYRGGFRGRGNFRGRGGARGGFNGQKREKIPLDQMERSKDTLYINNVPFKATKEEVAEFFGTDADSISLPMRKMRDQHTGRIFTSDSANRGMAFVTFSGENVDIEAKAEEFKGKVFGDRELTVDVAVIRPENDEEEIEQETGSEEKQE
Nature of the experiment: pull-down; domain mutants of Pab1 tested for binding with Sbp1 (Supplemental Fig. S5A-H); which partner was GST-tagged and whether RNA was present is not given; both purified.

B1: C-terminal protein-binding domain of Pab1 (PABC) (domain or fragment, UniProt P04147 489-568)
chain: GFPRNANDNNQFYQQKQRQALGEQLYKKVSAKTSNEEAAGKITGMILDLPPQEVFPLLESDELFEQHYKEASAAYESFKK
For B1, the binding entry is listed as “no binding”.

The values above are taken from paper PMC5733569, “Sbp1 modulates the translation of Pab1 mRNA in a poly(A)- and RGG-dependent manner” (RNA, 2018).
